Results are given in words; binding and its absence hold for the method and conditions named. Some entries that bind do so weakly or less than the wild type. Where a sequence is shown, tags or fusion partners need not be part of it.
Target: LexA fusion protein containing the cytoplasmic tail of the mouse CD40 receptor (from residue 219 to the COOH-terminus) (mouse) (UniProt P0A7C2+P27512)
Assay: yeast two-hybrid, quantitative β-galactosidase expression

Amino acid sequences for entries named in this document (tags omitted). A change or cut given only in a name is not applied to a line headed by its entry.
UniProt P0A7C2: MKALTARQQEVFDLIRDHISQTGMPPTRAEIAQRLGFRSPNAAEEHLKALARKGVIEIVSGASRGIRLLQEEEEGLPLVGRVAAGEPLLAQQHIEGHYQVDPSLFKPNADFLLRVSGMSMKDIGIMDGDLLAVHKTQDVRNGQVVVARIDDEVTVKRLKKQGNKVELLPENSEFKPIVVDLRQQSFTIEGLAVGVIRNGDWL
UniProt P27512: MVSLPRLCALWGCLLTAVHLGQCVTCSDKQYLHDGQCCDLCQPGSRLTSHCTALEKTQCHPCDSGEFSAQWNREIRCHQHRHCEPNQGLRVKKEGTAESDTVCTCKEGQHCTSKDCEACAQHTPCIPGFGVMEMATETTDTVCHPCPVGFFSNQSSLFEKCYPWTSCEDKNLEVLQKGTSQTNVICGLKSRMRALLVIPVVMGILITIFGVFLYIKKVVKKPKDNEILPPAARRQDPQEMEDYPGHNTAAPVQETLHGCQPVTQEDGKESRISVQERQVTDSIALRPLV

B1: full TRAF domain of CRAF1 (residues 356 to 562) as transcriptional activation domain fusion in yeast (protein, not shown: large carriers)
chain: LQNRVTELESVDKSAGQAARNTGLLESQLSRHDQTLSVHDIRLADMDLRFQVLETASYNGVLIWKIRDYKRRKQEAVMGKTLSLYSQPFYTGYFGYKMCARVYLNGDGMGKGTHLSLFFVIMRGEYDALLPWPFKQKVTLMLMDQGSSRRHLGDAFKPDPNSSSFKKPTGEMNIASGCPVFVAQTVLENGTYIKDDTIFIKVIVDTS
Q: With B1 as the binder, how does the binding read?
A: binds
